Tested on: murine TCRβ constant region
Experiment: mTCRβ expression detection on Jurkat-NFAT-Luc cells
Format: cell-based
Details: TCR mutant transduced Jurkat-NFAT-Luc cells

Molecule	mTCRβ %
β98P-W: B8.2.4 TCR point mutant, Vβ-CDR3 98P to W; CDR3β ASSQTVWPQH (protein) TCR alpha: AQKITQTQPGMFVQEKEAVTLDCTYDTSDPSYGLFWYKQPSSGEMIFLIYQGSYDQQNATEGRYSLNFQKARKSANLVISASQLGDSAMYFCAMRERTGTASKLTFGTGTRLQVTLDIQNPEPAVYQLKDPRSQDSTLCLFTDFDSQINVPKTMESGTFITDKTVLDMKAMDSKSNGAIAWSNQTSFTCQDIFKETNATYPSSDVPCDATLTEKSFETDMNLNFQNLSVMGLRILLLKVAGFNLLMTLRLWSS TCR beta: DVKVTQSSRYLVKRTGEKVFLECVQDMDHENMFWYRQDPGLGLRLIYFSYDVKMKEKGDIPEGYSVSREKKERFSLILESASTNQTSMYLCASSQTVWPQHFGDGTRLSILEDLRNVTPPKVSLFEPSKAEIANKQKATLVCLARGFFPDHVELSWWVNGKEVHSGVSTDPQAYKESNYSYCLSSRLRVSATFWHNPRNHFRCQVQFHGLSEEDKWPEGSPKPVTQNISAEAWGRADCGITSASYQQGVLSATILYEILLGKATLYAVLVSTLVVMAMVKRKNS	81%
β98P-Y: B8.2.4 TCR point mutant, Vβ-CDR3 98P to Y (protein) TCR alpha: AQKITQTQPGMFVQEKEAVTLDCTYDTSDPSYGLFWYKQPSSGEMIFLIYQGSYDQQNATEGRYSLNFQKARKSANLVISASQLGDSAMYFCAMRERTGTASKLTFGTGTRLQVTLDIQNPEPAVYQLKDPRSQDSTLCLFTDFDSQINVPKTMESGTFITDKTVLDMKAMDSKSNGAIAWSNQTSFTCQDIFKETNATYPSSDVPCDATLTEKSFETDMNLNFQNLSVMGLRILLLKVAGFNLLMTLRLWSS TCR beta: DVKVTQSSRYLVKRTGEKVFLECVQDMDHENMFWYRQDPGLGLRLIYFSYDVKMKEKGDIPEGYSVSREKKERFSLILESASTNQTSMYLCASSQTVYPQHFGDGTRLSILEDLRNVTPPKVSLFEPSKAEIANKQKATLVCLARGFFPDHVELSWWVNGKEVHSGVSTDPQAYKESNYSYCLSSRLRVSATFWHNPRNHFRCQVQFHGLSEEDKWPEGSPKPVTQNISAEAWGRADCGITSASYQQGVLSATILYEILLGKATLYAVLVSTLVVMAMVKRKNS	54%

Reference: US20240123070A1, “EPITOPE PEPTIDE OF RAS G13D MUTANT AND T CELL RECEPTOR RECOGNIZING RAS G13D MUTANT” (SHANGHAI GENBASE BIOTECHNOLOGY CO., LTD., priority 2021, published 2024)
